Data on 1 molecule can be found in publication PMC8602292, “Acyl carrier protein promotes MukBEF action in Escherichia coli chromosome organization-segregation” (Nature Communications, 2021).

The target of this experiment is T1, MukB (wild type, MukB-His) (Escherichia coli, UniProt P22523 1-1486).
T1 construct: MukB, the SMC protein of Escherichia coli MukBEF; wild type; The end of the tag is read from the printed name 'MukB-His'; The same construct was used with co-purified AcpP or depleted of AcpP by an extended salt gradient on heparin; also called WT MukB; AcpP-depleted MukB; source: E. coli C3013I (NEB), pET vector, purified (TALON, HiTrap Heparin, Superdex 200); not shown: His tag, C-terminal, kept
T1 sequence (looked up): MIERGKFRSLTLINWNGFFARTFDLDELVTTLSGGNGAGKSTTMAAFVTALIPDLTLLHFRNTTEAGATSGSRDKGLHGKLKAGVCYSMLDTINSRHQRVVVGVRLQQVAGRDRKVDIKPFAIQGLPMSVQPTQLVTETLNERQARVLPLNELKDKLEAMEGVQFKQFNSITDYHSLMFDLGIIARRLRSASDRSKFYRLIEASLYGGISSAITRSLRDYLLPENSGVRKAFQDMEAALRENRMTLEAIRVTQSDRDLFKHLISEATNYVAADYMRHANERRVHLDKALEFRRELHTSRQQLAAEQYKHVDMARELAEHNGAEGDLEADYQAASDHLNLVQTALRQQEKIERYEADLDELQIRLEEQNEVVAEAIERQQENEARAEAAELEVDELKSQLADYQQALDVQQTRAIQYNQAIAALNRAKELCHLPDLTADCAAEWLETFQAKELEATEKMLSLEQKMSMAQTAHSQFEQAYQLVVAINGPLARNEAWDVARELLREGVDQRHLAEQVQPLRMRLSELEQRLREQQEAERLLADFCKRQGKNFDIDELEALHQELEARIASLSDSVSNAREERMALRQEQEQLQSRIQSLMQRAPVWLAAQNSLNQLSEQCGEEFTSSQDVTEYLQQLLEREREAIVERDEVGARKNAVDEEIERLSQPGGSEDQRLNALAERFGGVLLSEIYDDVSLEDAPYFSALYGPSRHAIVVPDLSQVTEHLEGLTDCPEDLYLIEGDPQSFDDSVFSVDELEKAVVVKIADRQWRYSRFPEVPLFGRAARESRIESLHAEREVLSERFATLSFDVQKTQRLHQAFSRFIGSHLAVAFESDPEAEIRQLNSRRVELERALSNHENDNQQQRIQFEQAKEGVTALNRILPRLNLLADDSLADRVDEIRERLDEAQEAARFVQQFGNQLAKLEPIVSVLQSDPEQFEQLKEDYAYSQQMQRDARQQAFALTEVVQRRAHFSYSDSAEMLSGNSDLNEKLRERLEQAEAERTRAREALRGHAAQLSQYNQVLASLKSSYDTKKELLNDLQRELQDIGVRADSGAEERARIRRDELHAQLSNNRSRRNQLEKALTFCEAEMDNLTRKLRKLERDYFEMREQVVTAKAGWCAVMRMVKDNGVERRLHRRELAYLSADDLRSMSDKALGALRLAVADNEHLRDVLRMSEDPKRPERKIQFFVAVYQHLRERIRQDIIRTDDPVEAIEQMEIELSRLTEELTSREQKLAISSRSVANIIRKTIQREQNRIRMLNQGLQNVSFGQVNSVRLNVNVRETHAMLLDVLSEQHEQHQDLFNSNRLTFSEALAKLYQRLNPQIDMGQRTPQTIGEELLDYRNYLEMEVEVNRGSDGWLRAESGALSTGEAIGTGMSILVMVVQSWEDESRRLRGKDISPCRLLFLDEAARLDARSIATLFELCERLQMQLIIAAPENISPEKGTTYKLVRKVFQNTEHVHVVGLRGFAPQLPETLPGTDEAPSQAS
As to the kind of experiment: co-purification (SDS-PAGE of the purified His-tagged protein); native AcpP (or MukF) of the E. coli host carried along with MukB-His or its variants through TALON, heparin and Superdex 200; read by SDS-PAGE.

Results are given in words; binding and its absence hold for the method and conditions named. Some binding calls cover weakened binding; strength is not graded here. Tags and fused reporters may be left off the sequences shown.

B1: MukF (His-MukF) (natural protein, Escherichia coli, UniProt P60293 1-440, looked up)
chain: MSEFSQTVPELVAWARKNDFSISLPVDRLSFLLAVATLNGERLDGEMSEGELVDAFRHVSDAFEQTSETIGVRANNAINDMVRQRLLNRFTSEQAEGNAIYRLTPLGIGITDYYIRQREFSTLRLSMQLSIVAGELKRAADAAEEGGDEFHWHRNVYAPLKYSVAEIFDSIDLTQRLMDEQQQQVKDDIAQLLNKDWRAAISSCELLLSETSGTLRELQDTLEAAGDKLQANLLRIQDATMTHDDLHFVDRLVFDLQSKLDRIISWGQQSIDLWIGYDRHVHKFIRTAIDMDKNRVFAQRLRQSVQTYFDEPWALTYANADRLLDMRDEEMALRDEEVTGELPEDLEYEEFNEIREQLAAIIEEQLAVYKTRQVPLDLGLVVREYLSQYPRARHFDVARIVIDQAVRLGVAQADFTGLPAKWQPINDYGAKVQAHVIDKY
notes: MukF, the kleisin of Escherichia coli MukBEF; The end of the tag is read from the printed name 'His-MukF'; also called kleisin MukF; source: E. coli C3013I (NEB), pET vector, purified (TALON, HiTrap DEAE FF, Superdex 200)
As to B1, the binding entry is listed as “binds”.
